Consider 1 substance from article PMC10788198.

The chains behind the UniProt entries cited, without tags or fusion partners.
UniProt Q9UKE5: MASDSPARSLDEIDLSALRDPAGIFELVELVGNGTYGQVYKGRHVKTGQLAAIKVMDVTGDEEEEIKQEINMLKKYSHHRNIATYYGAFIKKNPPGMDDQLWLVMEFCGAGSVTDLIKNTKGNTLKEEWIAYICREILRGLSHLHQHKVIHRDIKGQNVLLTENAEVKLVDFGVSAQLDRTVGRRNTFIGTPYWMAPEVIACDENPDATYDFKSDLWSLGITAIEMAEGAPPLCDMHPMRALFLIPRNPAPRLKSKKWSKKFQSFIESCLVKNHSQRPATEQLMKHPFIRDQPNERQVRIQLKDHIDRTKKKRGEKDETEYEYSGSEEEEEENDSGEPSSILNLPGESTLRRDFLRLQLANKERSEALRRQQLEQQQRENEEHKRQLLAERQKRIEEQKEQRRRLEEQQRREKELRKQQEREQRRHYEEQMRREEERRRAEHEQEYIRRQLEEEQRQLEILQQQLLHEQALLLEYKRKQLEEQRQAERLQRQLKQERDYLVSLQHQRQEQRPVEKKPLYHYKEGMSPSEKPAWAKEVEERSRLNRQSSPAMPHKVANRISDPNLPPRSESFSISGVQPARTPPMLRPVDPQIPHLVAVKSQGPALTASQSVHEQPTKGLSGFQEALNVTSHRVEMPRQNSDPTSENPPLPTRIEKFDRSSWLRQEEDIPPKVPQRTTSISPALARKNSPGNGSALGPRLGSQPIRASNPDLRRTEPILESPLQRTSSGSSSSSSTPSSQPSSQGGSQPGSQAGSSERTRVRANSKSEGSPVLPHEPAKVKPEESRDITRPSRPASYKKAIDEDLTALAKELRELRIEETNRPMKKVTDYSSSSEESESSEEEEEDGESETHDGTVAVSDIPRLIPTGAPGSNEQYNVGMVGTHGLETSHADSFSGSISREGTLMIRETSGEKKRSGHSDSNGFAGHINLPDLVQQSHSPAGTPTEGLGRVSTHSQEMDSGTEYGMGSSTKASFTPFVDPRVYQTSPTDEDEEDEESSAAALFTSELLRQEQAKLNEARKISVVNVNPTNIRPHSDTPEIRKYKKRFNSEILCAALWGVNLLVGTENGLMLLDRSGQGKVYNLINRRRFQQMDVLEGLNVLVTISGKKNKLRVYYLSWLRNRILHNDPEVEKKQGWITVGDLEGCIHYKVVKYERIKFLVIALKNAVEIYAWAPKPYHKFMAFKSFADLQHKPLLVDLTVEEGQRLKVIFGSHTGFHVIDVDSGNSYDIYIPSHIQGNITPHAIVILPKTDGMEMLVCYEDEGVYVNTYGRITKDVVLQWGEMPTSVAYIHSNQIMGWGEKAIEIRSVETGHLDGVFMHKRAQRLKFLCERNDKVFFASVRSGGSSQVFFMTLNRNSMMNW

The target in the test is Traf2- and Nck-interacting kinase (TNIK), endogenous (human (endogenous in C4-2)) (UniProt Q9UKE5). In words: co-IP; endogenous proteins; immunoprecipitation of TNIK (and of EGFR) from C4-2 lysates, immunoblot of EGFR or TNIK.

Results are given in words; binding and its absence hold for the method and conditions named. In cells and extracts the contact can be indirect. Some binding calls cover weakened binding; strength is not graded here.

Regarding “epidermal growth factor receptor (EGFR), endogenous (from UniProt P00533 25-1210)”, the binding entry is “binds”.
